Experimental data taken from PubChem BioAssay AID1439 (NMMLSC, 2008).
The campaign covered roughly 220,000 compounds. About 770 (0.35%) were called active. This list was built around the results that the source calls inconclusive (neither active nor inactive); the mix of calls is not that of the screen. Cut-off read from the data, not from the text of the source: active = binding response below about 49% or above about 150%; inconclusive = no clear call, values can overlap the other calls; inactive = in between.

By UniProt entry, the sequences of proteins in these tests, tags left out.
UniProt P09471, whole entry, looked up: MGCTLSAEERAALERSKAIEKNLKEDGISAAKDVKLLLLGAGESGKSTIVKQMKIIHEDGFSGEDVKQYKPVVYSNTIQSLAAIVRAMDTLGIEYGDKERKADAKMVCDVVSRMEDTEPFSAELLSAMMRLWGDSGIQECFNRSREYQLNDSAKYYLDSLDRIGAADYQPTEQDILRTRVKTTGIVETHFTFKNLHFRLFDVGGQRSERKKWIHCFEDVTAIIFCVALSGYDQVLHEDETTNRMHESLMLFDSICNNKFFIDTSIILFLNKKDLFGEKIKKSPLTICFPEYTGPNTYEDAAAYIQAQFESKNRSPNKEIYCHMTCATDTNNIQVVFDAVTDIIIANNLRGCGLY

target: Guanine nucleotide-binding protein G(o) subunit alpha (Homo sapiens) (UniProt P09471); experiment: RGS7-Galphao binding modulators, primary screen, biochemical, multiplexed bead flow cytometry (AID 1439); details: at 10 µM, actives lie on both sides;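 note: fluorescent Galphao held in activated GDP-AlF4 state binding bead-coupled RGS7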

SMILES	binding response (% of control)
CCCc1nc2oc3ccccc3c(=O)c2c(=O)n1-c1ccccc1	inconclusive: 129%
COC(=O)Cc1csc(NC(=O)CSc2nnc3ccccn23)n1	inconclusive: 95.5%
COc1ccc(-c2c([C@H]3[C@@H]4C=CCC[C@@]4(C)C(=O)N3Cc3ccccc3)ccc3ccccc23)cc1OC	inconclusive: 112%
FC(F)(F)COc1ccc(-c2nnc(SCc3ccccc3)o2)cn1	inconclusive: 94.6%
COc1ccc(Cl)cc1-c1nc(SCC(=O)NC2CC2)n[nH]1	inconclusive: 107%
Cc1ccccc1C(=NCCCN(C)C)c1ccccc1C	inactive: 104%
CC(=O)c1sc(NC(=O)COc2ccc(Cl)cc2C)nc1C	inconclusive: 3.67%
CN(Cc1ccccc1)c1cc(Cl)nc(N)n1	inconclusive: 103%
COc1c(C)cc(C(=O)C2CCCN(C(=O)c3snnc3C)C2)cc1C (stereo unspecified)	inactive: 90.8%
OCCC1CN(Cc2cnc(-c3cccc4ccccc34)nc2)CCN1C1CCCCC1 (stereo unspecified)	inactive: 98.1%
CCn1c(O)c(/C=N/N=C/c2ccc(OC)cc2)c2cc(C3=NNC(=O)CC3)ccc21	inconclusive: 92.2%
Cc1c(/C=N\NC(=O)c2csc3ccccc23)cnn1C	inactive: 127%
CCN(CC)CCCNC(=O)/C=C/C(=O)O	inconclusive: 98.6%
CSc1cccc(NC(=O)COc2ccccc2C)c1	inconclusive: 97.6%
CCN(CC)CCNC(C(=O)Nc1cccc(C(C)=O)c1)c1ccccc1 (stereo unspecified)	inactive: 98.7%
CCCn1nnc(NC(=O)c2cc3ccccc3o2)n1	inactive: 101%
COC(=O)CNC(c1ccccc1)c1cc(Br)ccc1N (stereo unspecified)	inconclusive: 111%
O=c1c(OC2OC(CO)C(O)C(O)C2OC2OC(CO)C(O)C(O)C2OC2OC(CO)C(O)C(O)C2O)c(-c2ccc(O)c(O)c2)oc2cc(O)cc(O)c12 (stereo unspecified)	inconclusive: 121%
Cc1cccc(C(=O)N[C@H](C(=O)Nc2nc3ccccc3[nH]2)C(C)C)c1	inconclusive: 90.2%
Brc1ccc(-c2n(-c3ccccn3)c3ccccc3[n+]2-c2ccccn2)cc1	inconclusive: 129%
CCOC(=O)C1CCN(C(=O)COC(=O)CNC(=O)c2ccc(OC)cc2)CC1	inconclusive: 92.9%
CNc1ccc([N+](=O)[O-])cc1-c1nc2ccccc2[nH]c1=O	inconclusive: 1.85%
COc1ccc2nc(C)cc(Sc3nc4ccccc4s3)c2c1	inconclusive: 110%

SMILES	binding response (% of control)
Cc1c(Cl)cn2c(=O)cc(CN3CCN(c4ccc(F)cc4)CC3)nc2c1Cl	inactive: 100%
CCCNC(=O)CN(C)CC(=O)Nc1ccccc1C#N	inconclusive: 109%
CC(NS(=O)(=O)c1ccccc1)C(=O)NCc1ccco1 (stereo unspecified)	inactive: 103%
CC(C)(C)c1ccc(Oc2ccc(NC(=O)c3ccco3)cn2)cc1	inconclusive: 105%
O=C(c1cccs1)N(c1ccc(Cl)cc1)C1C=CS(=O)(=O)C1 (stereo unspecified)	inconclusive: 139%
Cn1cnnc1SCC(=O)NN1C(=O)NC(C)(c2ccccc2)C1=O (stereo unspecified)	inconclusive: 97.3%
CCCCCC(=O)Nc1cccc(C2=NOC3(C2)C[C@H](C(N)=O)N(C(=O)[C@H]2CCC(=O)N2)C3)c1 (stereo partly specified)	inconclusive: 85.2%
CC(C)c1ccc(CN(C)CC(O)c2ccccc2)cc1 (stereo unspecified)	inactive: 101%
CCOCCCNC(=O)/C(C#N)=C/c1ccc(C)o1	inconclusive: 82.8%
Cc1cccc(C)c1OCC(=O)Nc1cccc(C(=O)O)c1	inconclusive: 86%
CCCC1=[N+](CC(=O)c2ccc(Br)cc2)CCn2cccc21	inconclusive: 113%
CC1(C)CC(=O)c2sc(NS(=O)(=O)c3ccc(Br)cc3)nc2C1	inconclusive: 96.7%
Cc1ccc(NC(=S)Nc2ccc3[nH]c(=O)[nH]c3c2)cc1C	inconclusive: 187%
COc1ccc(NC(=O)c2c([N+](=O)[O-])c(C(C)(C)C)nn2C)cc1	inconclusive: 37.7%
CCCCNc1nc2ccccc2n1CC(=O)Nc1ccc2c(c1)OCCO2	inconclusive: 142%
CC(C)OC(=O)CSc1nnc2c(n1)[nH]c1ccc(F)cc12	inconclusive: 106%
COc1ccc2cc(S(=O)(=O)N3CCOCC3)ccc2c1	inactive: 101%
O=C(O)c1c(Cl)nc2ccccn12	inconclusive: 98.6%
CCn1cc(C(=O)NCc2cccnc2)c(=O)c2cc(F)c(N3CCN(C(=O)c4ccco4)CC3)cc21	inactive: 101%
N/C(=N\S(=O)(=O)c1cc(C(F)(F)F)cc(C(F)(F)F)c1)c1ccc(Cl)cc1	inconclusive: 120%
Cc1[nH]nc(SCC(=O)Nc2cccc(O)c2)c1[N+](=O)[O-]	inconclusive: 114%
CN(C)S(=O)(=O)c1cccc(NC(=O)c2n[nH]c(=O)c3ccccc23)c1	inconclusive: 99.7%
O=C(OCC(O)COC(=O)c1cccnc1)c1cccnc1	inconclusive: 83.1%

Copied from the list:
For binding response (% of control), `CC(C)OC(=O)CSc1nnc2c(n1)[nH]c1ccc(F)cc12` shows inconclusive: 106%
For binding response (% of control), `CCn1cc(C(=O)NCc2cccnc2)c(=O)c2cc(F)c(N3CCN(C(=O)c4ccco4)CC3)cc21` shows inactive: 101%
For binding response (% of control), `N/C(=N\S(=O)(=O)c1cc(C(F)(F)F)cc(C(F)(F)F)c1)c1ccc(Cl)cc1` shows inconclusive: 120%
For binding response (% of control), `Cn1cnnc1SCC(=O)NN1C(=O)NC(C)(c2ccccc2)C1=O` (stereo unspecified) shows inconclusive: 97.3%
For binding response (% of control), `CN(C)S(=O)(=O)c1cccc(NC(=O)c2n[nH]c(=O)c3ccccc23)c1` shows inconclusive: 99.7%
For binding response (% of control), `CC(C)(C)c1ccc(Oc2ccc(NC(=O)c3ccco3)cn2)cc1` shows inconclusive: 105%

Next compounds follow:

SMILES	binding response (% of control)
CC(=O)Nc1ccc(C2(O)COc3ccccc3O2)cc1 (stereo unspecified)	inactive: 102%
OCCNc1nc(-c2ccccc2)nc2c1oc1ccccc12	inconclusive: 99.2%
C[C@H](NC(=O)c1nc[nH]c1C(=O)NCc1ccccc1)C(=O)OC(C)(C)C	active: 26.1%
NC(=S)N/N=C/c1cccc(/C=N/NC(N)=S)c1	inconclusive: 110%
FC(F)(F)c1ccc(Sc2n[nH]c(C(F)(F)F)n2)nc1	inconclusive: 267%
O=C(COC(=O)Cc1cccc(C(F)(F)F)c1)NC1CC1	active: 12.1%
O=C(c1cccc2ccccc12)C1CCCN(C(=O)C2CCOCC2)C1 (stereo unspecified)	inconclusive: 114%
Cc1nnc(N/N=C/c2c[nH]c3ccccc23)[nH]c1=O	inconclusive: 117%
Cc1ccc(-c2csc(N=C(N)N)n2)cc1	inconclusive: 78.9%
COc1ccc(/C=C2\SC(=O)N(CCc3nnc(N)s3)C2=O)cc1	inconclusive: 87.2%
CCOc1c(Br)cc(/C=C2/SC(=O)N(CC(=O)N3CCCC3)C2=O)cc1OC	inactive: 83%
COc1cccc(/C=C/C(=O)NNC(=O)CCN2CCN(Cc3ccccc3)CC2)c1	inconclusive: 111%
Cc1cccc2c(N=Nc3ccc(S(=O)(=O)Nc4cccc(Cl)c4)cc3[N+](=O)[O-])c(O)[nH]c12	inconclusive: 93.2%
O=C(CSc1ccc2ccccc2n1)c1ccccc1	inconclusive: 91.9%
Cc1ccc(OC(=O)Nc2ccccc2)cc1	inconclusive: 92.8%
Cc1cc(NC(=O)c2ccc(-c3ccc(F)c(Cl)c3)o2)no1	inconclusive: 105%
COc1cc(C(=O)NNC(=S)Nc2ccc(S(N)(=O)=O)cc2)cc(OC)c1OC	inactive: 97.6%
Cc1ccc(/C=N/Nc2ncnc3nc[nH]c23)cc1	inconclusive: 110%
CC(=O)c1ccc(N2CCN(C(C)C(=O)NC3CCCc4ccccc43)CC2)cc1 (stereo unspecified)	inactive: 97.3%
COc1ccc(CCN(C)C(=O)CSc2nc3ncc(Cl)cc3[nH]2)cc1OC	inconclusive: 102%
Cc1ccc(S(=O)(=O)N2CCOCC2)cc1NC(=O)CSc1nc(N)cc(=O)[nH]1	inconclusive: 102%
COc1ccc(CNC(=O)Cn2nnc3ccccc3c2=O)cc1	inconclusive: 111%
CCc1nc(NCCO)c(C#N)c2c1CSC(C)(C)C2	inconclusive: 144%

SMILES	binding response (% of control)
Nc1n[nH]c(N)c1N=Nc1ccc(Cl)cc1Cl	active: 46.3%
CCN(CC)S(=O)(=O)c1ccc(N2CCCC2)c(NC(=O)Cc2ccccc2)c1	inconclusive: 94.5%
CSc1nsc(SC)c1C(=O)Nc1ccc(C(C)(C)C)cc1	inconclusive: 97.1%
O=c1[nH]c(-c2ccc(Cl)cc2)nc(=S)[nH]1	inconclusive: 94.2%
COc1cccc(/C=C/C(=O)N2CCN(c3n[nH]c(=O)[nH]c3=O)CC2)c1OC	inactive: 102%
CC(=O)C1=C(O)C(=O)N(c2cccnc2)C1c1cccc([N+](=O)[O-])c1 (stereo unspecified)	inconclusive: 81.1%
COc1ccc(-n2c(O)c(C=NCc3ccccn3)c3ccccc3c2=O)c(OC)c1	inconclusive: 103%
O=C(O)c1cn(Cc2ccccc2)nc1-c1cccnc1	inactive: 102%
Oc1ccc(C2C=C(c3ccc(F)cc3)Nc3ncnn32)cc1 (stereo unspecified)	inconclusive: 115%
Cc1ccc(C)c(NC(=O)Cn2cnc3c(oc4ccccc43)c2=O)c1	inconclusive: 97%
COc1cc(NC(=O)c2cc3cccc(OC)c3o2)cc(C(=O)Nc2cccc(C(F)(F)F)c2)c1	inconclusive: 88%
OCCOCCN1CCN(C(=S)Nc2ccccc2)CC1	inactive: 99.2%
CCOC(=O)c1sc(NC(=O)c2cccc(S(=O)(=O)N3CCc4ccccc43)c2)c(C#N)c1C	inconclusive: 97.8%
O=C(CCNC(=O)c1ccccc1Cl)N/N=C\c1ccc(O)cc1	inconclusive: 101%
O=C1c2ccccc2C(=O)N1CCCc1c[nH]c2ccc(Cl)cc12	inactive: 103%
CN(C)C(CNc1ncnc2sc3c(c12)CCCC3)c1ccco1 (stereo unspecified)	inactive: 100%
COc1ccc(/C=N/NC(=O)CN2CCCc3ccccc32)c(OC)c1	inconclusive: 71.6%
Cc1nnc(-c2cnn(C)c2N)n1CCCN1CCOCC1	inconclusive: 105%
Clc1ccc(-c2ccc(CNCC3CCCO3)o2)cc1 (stereo unspecified)	inconclusive: 111%
CCc1ccccc1Nc1nc(N)nc(CSc2nnc3ccccn23)n1	inconclusive: 84.5%
COc1ccc(C(O)c2coc3ccc(O)c(CN(C)C)c23)cc1 (stereo unspecified)	inactive: 115%
C/C(=N\NS(=O)(=O)c1ccccc1)c1cc(Cl)cc(Cl)c1O	inactive: 100%
